No constants are given. Whether binding was seen depends on the method and setting. In cells and extracts the contact can be indirect. These calls come from enrichment with a bait or labelling near it, and not all partners need be listed.
Molecular target: BioID2-PTPN22 WT (human) (UniProt Q9Y2R2)
Experiment: proximity labelling; BioID2-PTPN22 WT or BioID2 empty vector stably expressed in PTPN22 KO Jurkat cells; biotinylated proteins pulled down on Streptavidin beads, GSK3 α/β detected by Western blot

Protein sequences, listed by entry. Tags and fused reporters are not part of them.
UniProt Q9Y2R2: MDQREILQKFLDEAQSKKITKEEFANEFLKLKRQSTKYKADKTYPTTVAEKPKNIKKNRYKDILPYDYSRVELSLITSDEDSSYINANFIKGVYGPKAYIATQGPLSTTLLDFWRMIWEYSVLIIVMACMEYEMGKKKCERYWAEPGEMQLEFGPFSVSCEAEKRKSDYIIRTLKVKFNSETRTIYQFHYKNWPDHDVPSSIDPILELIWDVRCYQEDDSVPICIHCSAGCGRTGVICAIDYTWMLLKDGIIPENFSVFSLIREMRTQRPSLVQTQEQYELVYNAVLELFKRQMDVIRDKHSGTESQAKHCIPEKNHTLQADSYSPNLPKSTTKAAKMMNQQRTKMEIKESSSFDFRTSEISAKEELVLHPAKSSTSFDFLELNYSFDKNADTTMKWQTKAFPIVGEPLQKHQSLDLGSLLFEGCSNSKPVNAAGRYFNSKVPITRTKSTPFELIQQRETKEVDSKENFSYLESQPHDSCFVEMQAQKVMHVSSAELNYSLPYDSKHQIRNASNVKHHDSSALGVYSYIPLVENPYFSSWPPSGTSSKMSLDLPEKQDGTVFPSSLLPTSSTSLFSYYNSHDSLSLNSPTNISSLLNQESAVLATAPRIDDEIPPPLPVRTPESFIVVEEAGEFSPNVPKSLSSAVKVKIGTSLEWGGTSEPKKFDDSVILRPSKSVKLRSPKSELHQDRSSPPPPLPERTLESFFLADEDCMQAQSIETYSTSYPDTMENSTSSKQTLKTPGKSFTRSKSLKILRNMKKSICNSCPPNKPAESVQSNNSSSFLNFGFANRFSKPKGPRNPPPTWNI
UniProt P49841: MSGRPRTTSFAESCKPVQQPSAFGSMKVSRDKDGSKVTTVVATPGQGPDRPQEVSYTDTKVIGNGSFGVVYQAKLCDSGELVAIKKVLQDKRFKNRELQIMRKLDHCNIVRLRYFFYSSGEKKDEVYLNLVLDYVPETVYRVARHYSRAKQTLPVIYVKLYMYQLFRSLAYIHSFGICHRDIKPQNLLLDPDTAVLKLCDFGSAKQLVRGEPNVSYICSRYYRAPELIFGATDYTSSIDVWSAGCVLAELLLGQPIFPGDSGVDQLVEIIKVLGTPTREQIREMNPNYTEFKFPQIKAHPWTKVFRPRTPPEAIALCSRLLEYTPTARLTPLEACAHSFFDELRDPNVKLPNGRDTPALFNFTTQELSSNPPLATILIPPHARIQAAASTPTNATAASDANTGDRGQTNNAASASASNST
UniProt P49840: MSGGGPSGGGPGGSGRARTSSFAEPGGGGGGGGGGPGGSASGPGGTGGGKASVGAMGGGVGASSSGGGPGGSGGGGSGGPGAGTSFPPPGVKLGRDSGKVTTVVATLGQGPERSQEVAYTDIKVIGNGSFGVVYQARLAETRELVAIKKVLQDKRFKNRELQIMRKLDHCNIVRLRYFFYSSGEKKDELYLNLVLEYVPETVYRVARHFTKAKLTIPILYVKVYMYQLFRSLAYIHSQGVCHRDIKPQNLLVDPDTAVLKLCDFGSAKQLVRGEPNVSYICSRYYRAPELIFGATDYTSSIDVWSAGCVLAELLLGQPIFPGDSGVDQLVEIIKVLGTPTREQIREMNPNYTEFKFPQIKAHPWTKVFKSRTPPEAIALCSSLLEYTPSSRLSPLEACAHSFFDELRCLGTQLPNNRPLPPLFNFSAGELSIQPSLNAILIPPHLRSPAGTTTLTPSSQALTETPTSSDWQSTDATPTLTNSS

Row | binding | Substance
1 | binds | glycogen synthase kinase 3 beta (from UniProt P49841 1-420) (enzyme)
2 | binds | glycogen synthase kinase 3 alpha (from UniProt P49840 1-483) (enzyme)

From PMC11237943
